PubChem BioAssay AID1259272, Sanger Institute, 2017

Screen: 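Kinase knock-downs lethal to colorectal cancer cells, with or without anchor drugs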 (primary screen)
Cell system: SW1116 human colorectal cancer cells
Knock-down reagent: siRNA pool against human genes
Treatment: anchor drugs BYL719 (1 µM), cetuximab (5 µg/ml) or trametinib (10 nM), or DMSO vehicle; exposure length not given
Measurement: 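Cell survival as a fraction of wells given a non-targeting pool, averaged over replicates; robust z-score without drug; synergy score for each of BYL719, cetuximab and trametinib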
Direction: viability z-score, no drug: higher = more cells remaining; strongly negative means essential gene
Rule for the call: 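Called essential if the drug-free knock-down gives a robust viability z-score below -3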
Calls: active = essential (knock-down alone); inactive = no change
The whole screen tested 794 reagents; below is a part drawn at random. In the full data, 7 (0.88%) got an active call. 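Essential calls reflect knock-down without drug only, not synergy with drugs; drug exposure length not given.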 The numbers tell different reagents against one gene apart. Not all columns of the deposit are shown. Not given: the amount of reagent, the time to read-out.

PCK1 (GeneID 5105)
- viability z-score, no drug: 0.842
- Outcome: inactive

IRAK2 (GeneID 3656)
- viability z-score, no drug: 0.842
- Outcome: inactive

PKN2 (GeneID 5586)
- viability z-score, no drug: 0.776
- Outcome: inactive

PRKAG3 (GeneID 53632)
- viability z-score, no drug: -2.09
- Outcome: inactive

NEK1 (GeneID 4750)
- viability z-score, no drug: 0.842
- Outcome: inactive

DCLK1 (GeneID 9201)
- viability z-score, no drug: 0.0186
- Outcome: inactive

DAPK3 (GeneID 1613)
- viability z-score, no drug: -2.64
- Outcome: inactive

PHKA1 (GeneID 5255)
- viability z-score, no drug: 0.842
- Outcome: inactive

ILK (GeneID 3611) #1
- viability z-score, no drug: 0.842
- Outcome: inactive

ILK (GeneID 3611) #2
- viability z-score, no drug: 0.656
- Outcome: inactive

PRKAR1A (GeneID 5573)
- viability z-score, no drug: 0.842
- Outcome: inactive

NRK (GeneID 203447)
- viability z-score, no drug: -0.216
- Outcome: inactive

2 neighbouring reagents from above, quoted:
NEK1 (GeneID 4750)
- viability z-score, no drug: 0.842
- Outcome: inactive

DCLK1 (GeneID 9201)
- viability z-score, no drug: 0.0186
- Outcome: inactive
